# “And” between values parts separate entries of the source, which are not always exact repeats. Identical values can stand only once. The list shows a part of the results. The main result of the screen is listed elsewhere. These columns were measured beside it and carry no call. Most of these compounds were active or inconclusive in the main read-out, so they are no random draw. Words in brackets tell the shape of the fitted curve; partial curves, single points and poor fits give uncertain potencies.
# Assay: qHTS Assay for Modulators of Lamin A Splicing
# Conditions: HeLa LMNA splicing GFP/RFP minigene ratio, 48 h
# Method in brief: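 S3 HeLa stable clones carrying a lamin A-EGFP splicing minigene plus DsRed2 were seeded at 600 cells/well in Opti-MEM with 2% FBS, pin-dosed and incubated 48 h at 37°C. Acumen cytometry (488 nm) gave the GFP/RFP total-intensity ratio.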
# [1] = measured here: GFP splicing reporter channel
# [2] = measured here: RFP viability control channel
Structure (SMILES),AC50 [1],AC50 [2]
Cc1ccc(C(=O)OCC(=O)c2c[nH]c3ccccc23)cc1NC(=O)c1ccco1,"20 µM [falling, partial curve, poor fit]",–
O=C(CS(=O)c1ccc(C(F)(F)F)cc1[N+](=O)[O-])Oc1ccccc1 (stereo not given),"35.5 µM [falling, single point]",–
CCc1ccc2nc3n[nH]c(N)c3cc2c1,–,"11.2 µM [falling, partial curve]"
OCCNCc1cc(Br)ccc1OCc1ccc(F)cc1,"14.1 µM [falling, single point]",–
Cc1ccccc1C(=O)Nc1ccc(OCc2cc(=O)n3ccccc3n2)cc1,"20 µM [falling, single point]",–
Cc1ccc(CCNC(=O)c2c[nH]c3ccc(S(=O)(=O)Nc4ccc(C)cc4C)cc3c2=O)cc1,"28.2 µM [falling, single point]",–
COc1ccc2nc(Nc3nc4cc5c(cc4s3)OCCO5)sc2c1,–,"11.2 µM [rising, single point]"
Clc1ccccc1N/N=C/c1ccc2c(c1)OCO2,"35.5 µM [rising, single point]",–
CC(C)OC(=O)/C(=C/c1ccc(Br)cc1)NC(=O)c1ccco1,–,"5.62 µM [rising, partial curve, poor fit]"
Cc1cccc(NC(=O)CN2C(=O)C(C)Oc3ccccc32)n1 (stereo not given),"25.1 µM [rising, partial curve]",–
O=C(CSc1nnc(COc2ccccc2)n1Cc1ccco1)c1ccc(F)cc1,"15.8 µM [rising, partial curve]","12.6 µM [rising, partial curve]"
CC(NC(=O)CCNC(=O)c1ccccc1Cl)C1CC2CCC1C2 (stereo not given),"31.6 µM [rising, single point]","31.6 µM [rising, single point]"
O=C(Nc1cccc(F)c1)Nc1ccccn1,"0.00501 µM [falling, full curve]","0.00891 µM [falling, full curve]"
N#Cc1cccn1-c1nccs1,–,"6.31 µM [falling, partial curve]"
O=C(NCCNCc1cccs1)c1ccccc1F,"0.01 µM [falling, full curve, poor fit]",–
Cc1[nH]c(=O)c(C#N)cc1-c1ccncc1,"0.0562 µM [falling, full curve, poor fit]","14.1 µM [falling, single point]"
Cc1ccccc1N1CCN(Cc2c[nH]c3ccccc23)CC1,–,"14.1 µM [rising, single point]"
COC(=O)CCNC(=O)NC(CCC(C)C)c1c(-n2cccc2)sc2c1CCN(C)C2 (stereo not given),–,"0.0224 µM [rising, full curve, poor fit]"
COc1cccc(N2CCN(c3ncnc4c3[nH]c3ccccc34)CC2C)c1 (stereo not given),"35.5 µM [falling, single point]","28.2 µM [falling, single point]"

Structure (SMILES),AC50 [1],AC50 [2]
S=C(Nc1ccc(Cl)c(Cl)c1)NC1CCN(Cc2ccccc2)CC1,"11.2 µM [rising, single point]","25.1 µM [rising, single point]"
CC(C)C(NC(=O)C(NC(=O)C1OC2OC(C)(C)OC2C2OC(C)(C)OC12)C(C)C)C(=O)O (stereo not given),"8.91 µM [falling, partial curve, poor fit]",–
CCOC(=O)C1=C(C)NC(C)=C(C(=O)OCC)C1C,–,"35.5 µM [rising, single point]"
OCCCNC(=S)Nc1ccc(Oc2ccccc2)cc1,"5.01 µM [rising, partial curve]","14.1 µM [rising, single point]"
O=C(OCC(=O)N1CCc2ccccc21)c1cncc(Br)c1,"0.00501 µM [rising, full curve, poor fit]","0.00447 µM [rising, full curve, poor fit]"
Cc1cc([N+](=O)[O-])nn1CCCC(=O)Nc1cccnc1Cl,–,"10 µM [falling, partial curve]"
O=C(c1ccco1)N1CCN=C1SCc1cccnc1,–,"31.6 µM [rising, single point]"
COc1cccc(/C=N/NC(=O)C(C)n2nc(C)c([N+](=O)[O-])c2C)c1O (stereo not given),–,"8.91 µM [rising, partial curve]"
Cc1cc(CSc2ccccc2)ccc1NC(=O)c1ccc(CN2CCOCC2)cc1,–,"0.501 µM [rising, full curve]"
C#C[C@]1(O)CC[C@H]2[C@@H]3CCc4cc(OC5CCCC5)ccc4[C@H]3CC[C@@]21C,"25.1 µM [falling, partial curve]","501 nM [falling, partial curve, poor fit] and 112 nM [rising, full curve, poor fit]"
Cc1cc(C)nc(N(C#N)CCOc2ccccc2)n1,"6.31 µM [rising, partial curve, poor fit]",–
COc1cc(NC(=O)COC(=O)c2ccc(C)c(S(=O)(=O)N3CCCCC3)c2)c(C)cc1[N+](=O)[O-],–,"22.4 µM [rising, single point]"
CCn1c(SCC(=O)N2CCN(c3ccccc3)CC2)nnc1-c1c[nH]c2ccccc12,–,"11.2 µM [rising, partial curve]"
CCOc1ccc(CNC(=O)c2cnc3sc(N4CCOCC4)nn3c2=O)cc1,"0.224 µM [rising, full curve, poor fit]",–
CCn1cc(C(=O)N2CCN(c3cccc(Cl)c3)CC2)c2cc(OC)c(OC)cc2c1=O,–,"8.91 µM [rising, partial curve]"
COc1ccc(NC(C)=O)cc1CNC(=O)COc1c(C)c(C)cc(C)c1C,–,"14.1 µM [rising, single point]"
O=c1cnn(-c2ccccc2)c(-c2ccccc2)c1,"8.91 µM [rising, partial curve, poor fit]","12.6 µM [rising, single point]"
Cc1ccc2c(C)nc(Nc3nc(CSc4nc5ccccc5[nH]4)cc(=O)[nH]3)nc2c1,"11.2 µM [falling, partial curve]","15.8 µM [falling, partial curve]"
Nc1c(C(=O)NCc2ccc(Cl)cc2)sc2nc3c(c(C(F)(F)F)c12)CCC3,"35.5 µM [rising, single point]","35.5 µM [rising, single point]"

Structure (SMILES),AC50 [1],AC50 [2]
COc1ccc(-c2nnc(SCC(=O)Nc3cc(C)on3)o2)cc1,–,"0.00794 µM [falling, full curve, poor fit]"
Cc1cccc(NC(=O)c2cc(S(=O)(=O)NCc3ccco3)ccc2F)c1C,–,"31.6 µM [rising, single point]"
Cc1csc(NC(=O)CCc2c(C)nc3cc(-c4ccc(Cl)cc4)nn3c2C)n1,–,"5.62 µM [rising, single point]"
CCCNC(=O)NC(=O)CSc1nc2ccccc2n1CC(C)C,"20 µM [rising, single point]","31.6 µM [rising, single point]"
O=C(NCCSCc1ccc(Cl)cc1Cl)c1ccc(CN2CCOCC2)cc1,"4.47 µM [rising, full curve]","10 µM [rising, partial curve]"
Cc1ccc(C(=O)COC(=O)CNS(=O)(=O)c2ccccc2)cc1[N+](=O)[O-],"14.1 µM [rising, partial curve, poor fit]",–
CCc1ccc(OCCNC(=O)c2ccccc2SCc2ccc(F)cc2)cc1,–,"28.2 µM [falling, single point]"
Cc1ccc(Nc2nc(N)nc(CN3CCN(Cc4ccc5c(c4)OCO5)CC3)n2)cc1,–,"10 µM [rising, partial curve, poor fit]"
Cc1cccc(N=C2NC(=O)/C(=C/c3cccs3)S2)c1,"1.78 µM [rising, partial curve, poor fit]","35.5 µM [falling, single point]"
O=c1[nH]c2cc3c(cc2cc1CN(Cc1ccccc1)Cc1nnnn1Cc1ccco1)OCCO3,–,"35.5 µM [rising, single point]"
Cc1cc(NCCCn2ccnc2)n2ncc(-c3ccc(Cl)cc3)c2n1,–,"35.5 µM [falling, single point]"
Clc1ccc(-c2cnn3c(-c4ccncc4)ccnc23)cc1,"28.2 µM [falling, single point]",–
Cc1ccc(C)c(Nc2ncnc(N)c2[N+](=O)[O-])c1,"0.141 µM [rising, partial curve, poor fit]","0.1 µM [rising, partial curve]"
O=C(NCc1ccc2c(c1)OCO2)c1ccc(Cl)c(S(=O)(=O)N2CCOCC2)c1,"35.5 µM [falling, single point]",–
O=C(O)CC(NC(=O)Nc1ccccc1)c1ccc(OC2CCCC2)cc1 (stereo not given),"1.26 µM [rising, single point]",–
COc1ccc(CCNC(=O)c2nnn(CC(=O)Nc3cccc(F)c3)c2N)cc1OC,"6.31 µM [falling, partial curve]","6.31 µM [falling, partial curve, poor fit]"
CCc1ccc(-c2csc(-c3c[nH]c4ccccc34)n2)cc1,–,"25.1 µM [rising, single point]"
Cc1cccc(C)c1N=C1NN=C(c2ccccc2F)CS1,–,"35.5 µM [rising, single point]"
Cc1noc(C)c1-c1ccc2ncnc(N(C)C)c2c1,"14.1 µM [falling, partial curve]","11.2 µM [falling, partial curve]"

# — PubChem BioAssay AID1487 (National Center for Advancing Translational Sciences (NCATS), 2009)
